Results on 1 substance are retold here after paper doi:10.1101/645937.

Chains of the proteins cited; added tags and fusions are not shown.
UniProt Q92585: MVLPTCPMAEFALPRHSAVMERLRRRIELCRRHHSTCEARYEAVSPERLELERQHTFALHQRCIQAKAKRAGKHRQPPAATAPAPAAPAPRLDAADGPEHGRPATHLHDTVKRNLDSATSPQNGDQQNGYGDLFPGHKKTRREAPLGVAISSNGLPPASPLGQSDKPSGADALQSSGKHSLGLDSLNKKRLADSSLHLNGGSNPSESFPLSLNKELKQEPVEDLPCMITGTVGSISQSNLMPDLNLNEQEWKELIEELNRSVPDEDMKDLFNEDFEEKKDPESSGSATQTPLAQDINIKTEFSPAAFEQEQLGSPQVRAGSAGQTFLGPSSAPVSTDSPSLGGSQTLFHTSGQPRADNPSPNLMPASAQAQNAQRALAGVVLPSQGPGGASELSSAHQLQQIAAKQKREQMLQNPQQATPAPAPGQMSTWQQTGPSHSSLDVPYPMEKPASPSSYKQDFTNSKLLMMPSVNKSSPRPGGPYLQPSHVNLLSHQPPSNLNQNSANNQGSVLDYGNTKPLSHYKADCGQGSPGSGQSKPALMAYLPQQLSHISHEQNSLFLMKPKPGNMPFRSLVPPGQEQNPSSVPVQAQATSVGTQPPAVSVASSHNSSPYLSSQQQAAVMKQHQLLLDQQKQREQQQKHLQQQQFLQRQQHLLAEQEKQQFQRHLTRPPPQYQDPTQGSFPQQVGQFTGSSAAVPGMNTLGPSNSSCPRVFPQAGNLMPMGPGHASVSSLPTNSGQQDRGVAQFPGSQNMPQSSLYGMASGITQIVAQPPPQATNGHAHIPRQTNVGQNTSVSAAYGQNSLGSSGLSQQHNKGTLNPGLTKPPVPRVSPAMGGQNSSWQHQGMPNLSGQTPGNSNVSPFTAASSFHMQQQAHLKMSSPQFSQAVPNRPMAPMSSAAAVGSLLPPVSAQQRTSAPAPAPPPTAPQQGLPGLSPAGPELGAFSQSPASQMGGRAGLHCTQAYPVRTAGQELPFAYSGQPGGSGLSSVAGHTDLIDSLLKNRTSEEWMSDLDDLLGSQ

In this test the target is T1, HA-FLAG-tagged NRARP (human) (UniProt Q7Z6K4).
T1 sequence: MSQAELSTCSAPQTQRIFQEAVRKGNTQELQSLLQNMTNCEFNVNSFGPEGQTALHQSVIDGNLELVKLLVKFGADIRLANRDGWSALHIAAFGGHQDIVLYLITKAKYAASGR
Description: affinity purification with mass spectrometry.

These are yes or no findings as the source states them, for the method shown. Binding seen in cells or lysates may run through a third protein. A yes stands for co-enrichment or nearness to the bait. Other partners may have been found. Sequences can lack the tags named with a protein.

On to “MAML1 (endogenous, Jurkat) (from UniProt Q92585 1-1016)”, for which the binding result is listed as “binds”.
